Assay results reported in the supplement of paper PMC11438910.
The other results are listed elsewhere or left out. Only a few entries rise above the background.

Columns and labels:
Experiment in all cases: fluorescence intensity of antibody binding to polysaccharide-coupled beads; higher = stronger binding
[1] = biological target: pneumococcal polysaccharide Pn13
[2] = biological target: pneumococcal polysaccharide Pn14
[3] = biological target: pneumococcal polysaccharide Pn15A
[4] = biological target: pneumococcal polysaccharide Pn15B
[5] = biological target: pneumococcal polysaccharide Pn15C
[6] = biological target: pneumococcal polysaccharide Pn15F
[7] = biological target: pneumococcal polysaccharide Pn16A
[8] = biological target: pneumococcal polysaccharide Pn16F
[9] = biological target: pneumococcal polysaccharide Pn17A
[10] = biological target: pneumococcal polysaccharide Pn17F
[11] = biological target: pneumococcal polysaccharide Pn18A
[12] = biological target: pneumococcal polysaccharide Pn18B
[13] = biological target: pneumococcal polysaccharide Pn18C
[14] = biological target: pneumococcal polysaccharide Pn18F
[15] = biological target: pneumococcal polysaccharide Pn19A
[16] = biological target: pneumococcal polysaccharide Pn19B
[17] = biological target: pneumococcal polysaccharide Pn19C
[18] = biological target: pneumococcal polysaccharide Pn19F
[19] = biological target: pneumococcal polysaccharide Pn2
[20] = biological target: pneumococcal polysaccharide Pn20A
[21] = biological target: pneumococcal polysaccharide Pn20B
[22] = biological target: pneumococcal polysaccharide Pn21
[23] = biological target: pneumococcal polysaccharide Pn22A
[24] = antibody concentration 0.1 ng/mL
[25] = antibody concentration 0.534724 ng/mL
[26] = antibody concentration 2.8593 ng/mL
[27] = antibody concentration 15.2894 ng/mL
[28] = antibody concentration 81.7561 ng/mL
[29] = antibody concentration 437.17 ng/mL
[30] = antibody concentration 2337.65 ng/mL
[31] = antibody concentration 12500 ng/mL

B1: 4-173.5 (protein)
chain 1: QLQLQESGPGLVKPSETLSLTCAVSGDSISSNYWSWIRQPPGKGLEWIGRISDGGGSTDYNPSLKSRVTISTDTSKNQFSLKLNSVTAADTAVYFCARGSYRVDYWGQGVLVTVSS
chain 2: QAALTQPPSMSGSPGQSVTISCTGASSDIGGYNRVSWYQQHPANAPKLMIYDVSKRPSGVSDRFSGSKSGNTASLTISGLQADDEADYYCSSYAHINTALFGGGTRLTVL
- fluorescence intensity [1, 24]: 20 MFI
- fluorescence intensity [1, 25]: 19.8 MFI
- fluorescence intensity [1, 26]: 21 MFI
- fluorescence intensity [1, 27]: 41 MFI
- fluorescence intensity [1, 28]: 220 MFI
- fluorescence intensity [1, 29]: 1250 MFI
- fluorescence intensity [1, 30]: 4200 MFI
- fluorescence intensity [1, 31]: 6240 MFI
- fluorescence intensity [2, 24]: 14 MFI
- fluorescence intensity [2, 25]: 14.5 MFI
- fluorescence intensity [2, 26]: 14 MFI
- fluorescence intensity [2, 27]: 16.5 MFI
- fluorescence intensity [2, 28]: 22.5 MFI
- fluorescence intensity [2, 29]: 62.5 MFI
- fluorescence intensity [2, 30]: 219 MFI
- fluorescence intensity [2, 31]: 505 MFI
- fluorescence intensity [3, 24]: 14 MFI
- fluorescence intensity [3, 25]: 13.5 MFI
- fluorescence intensity [3, 26]: 17.5 MFI
- fluorescence intensity [3, 27]: 39.2 MFI
- fluorescence intensity [3, 28]: 213 MFI
- fluorescence intensity [3, 29]: 1130 MFI
- fluorescence intensity [3, 30]: 4020 MFI
- fluorescence intensity [3, 31]: 5830 MFI
- fluorescence intensity [4, 24]: 18 MFI
- fluorescence intensity [4, 25]: 19.5 MFI
- fluorescence intensity [4, 26]: 23 MFI
- fluorescence intensity [4, 27]: 32.5 MFI
- fluorescence intensity [4, 28]: 104 MFI
- fluorescence intensity [4, 29]: 452 MFI
- fluorescence intensity [4, 30]: 1800 MFI
- fluorescence intensity [4, 31]: 2930 MFI
- fluorescence intensity [5, 24]: 17 MFI
- fluorescence intensity [5, 25]: 15 MFI
- fluorescence intensity [5, 26]: 18.8 MFI
- fluorescence intensity [5, 27]: 35 MFI
- fluorescence intensity [5, 28]: 186 MFI
- fluorescence intensity [5, 29]: 1040 MFI
- fluorescence intensity [5, 30]: 3540 MFI
- fluorescence intensity [5, 31]: 4960 MFI
- fluorescence intensity [6, 24]: 17.5 MFI
- fluorescence intensity [6, 25]: 16.2 MFI
- fluorescence intensity [6, 26]: 23.5 MFI
- fluorescence intensity [6, 27]: 55.5 MFI
- fluorescence intensity [6, 28]: 346 MFI
- fluorescence intensity [6, 29]: 1580 MFI
- fluorescence intensity [6, 30]: 5080 MFI
- fluorescence intensity [6, 31]: 7300 MFI
- fluorescence intensity [7, 24]: 13.5 MFI
- fluorescence intensity [7, 25]: 14 MFI
- fluorescence intensity [7, 26]: 14 MFI
- fluorescence intensity [7, 27]: 16 MFI
- fluorescence intensity [7, 28]: 27.5 MFI
- fluorescence intensity [7, 29]: 140 MFI
- fluorescence intensity [7, 30]: 899 MFI
- fluorescence intensity [7, 31]: 1760 MFI
- fluorescence intensity [8, 24]: 25 MFI
- fluorescence intensity [8, 25]: 24.8 MFI
- fluorescence intensity [8, 26]: 26 MFI
- fluorescence intensity [8, 27]: 32 MFI
- fluorescence intensity [8, 28]: 100 MFI
- fluorescence intensity [8, 29]: 502 MFI
- fluorescence intensity [8, 30]: 2000 MFI
- fluorescence intensity [8, 31]: 3340 MFI
- fluorescence intensity [9, 24]: 20.5 MFI
- fluorescence intensity [9, 25]: 21 MFI
- fluorescence intensity [9, 26]: 22.5 MFI
- fluorescence intensity [9, 27]: 34.5 MFI
- fluorescence intensity [9, 28]: 134 MFI
- fluorescence intensity [9, 29]: 733 MFI
- fluorescence intensity [9, 30]: 2680 MFI
- fluorescence intensity [9, 31]: 4100 MFI
- fluorescence intensity [10, 24]: 28 MFI
- fluorescence intensity [10, 25]: 26.8 MFI
- fluorescence intensity [10, 26]: 29.5 MFI
- fluorescence intensity [10, 27]: 51.5 MFI
- fluorescence intensity [10, 28]: 212 MFI
- fluorescence intensity [10, 29]: 994 MFI
- fluorescence intensity [10, 30]: 2990 MFI
- fluorescence intensity [10, 31]: 4070 MFI
- fluorescence intensity [11, 24]: 24.5 MFI
- fluorescence intensity [11, 25]: 23.5 MFI
- fluorescence intensity [11, 26]: 24.8 MFI
- fluorescence intensity [11, 27]: 32.5 MFI
- fluorescence intensity [11, 28]: 78.2 MFI
- fluorescence intensity [11, 29]: 390 MFI
- fluorescence intensity [11, 30]: 1600 MFI
- fluorescence intensity [11, 31]: 2940 MFI
- fluorescence intensity [12, 24]: 29 MFI
- fluorescence intensity [12, 25]: 30.2 MFI
- fluorescence intensity [12, 26]: 31.5 MFI
- fluorescence intensity [12, 27]: 40.5 MFI
- fluorescence intensity [12, 28]: 125 MFI
- fluorescence intensity [12, 29]: 578 MFI
- fluorescence intensity [12, 30]: 2100 MFI
- fluorescence intensity [12, 31]: 3810 MFI
- fluorescence intensity [13, 24]: 19 MFI
- fluorescence intensity [13, 25]: 19.5 MFI
- fluorescence intensity [13, 26]: 20.5 MFI
- fluorescence intensity [13, 27]: 29 MFI
- fluorescence intensity [13, 28]: 86 MFI
- fluorescence intensity [13, 29]: 287 MFI
- fluorescence intensity [13, 30]: 816 MFI
- fluorescence intensity [13, 31]: 1530 MFI
- fluorescence intensity [14, 24]: 23 MFI
- fluorescence intensity [14, 25]: 22.5 MFI
- fluorescence intensity [14, 26]: 23 MFI
- fluorescence intensity [14, 27]: 26.8 MFI
- fluorescence intensity [14, 28]: 58 MFI
- fluorescence intensity [14, 29]: 253 MFI
- fluorescence intensity [14, 30]: 1230 MFI
- fluorescence intensity [14, 31]: 2450 MFI
- fluorescence intensity [15, 24]: 18 MFI
- fluorescence intensity [15, 25]: 18.5 MFI
- fluorescence intensity [15, 26]: 21.5 MFI
- fluorescence intensity [15, 27]: 41.8 MFI
- fluorescence intensity [15, 28]: 136 MFI
- fluorescence intensity [15, 29]: 566 MFI
- fluorescence intensity [15, 30]: 1630 MFI
- fluorescence intensity [15, 31]: 2700 MFI
- fluorescence intensity [16, 24]: 29 MFI
- fluorescence intensity [16, 25]: 30 MFI
- fluorescence intensity [16, 26]: 32.5 MFI
- fluorescence intensity [16, 27]: 34.5 MFI
- fluorescence intensity [16, 28]: 83 MFI
- fluorescence intensity [16, 29]: 468 MFI
- fluorescence intensity [16, 30]: 2360 MFI
- fluorescence intensity [16, 31]: 5570 MFI
- fluorescence intensity [17, 24]: 26.2 MFI
- fluorescence intensity [17, 25]: 25.2 MFI
- fluorescence intensity [17, 26]: 28.8 MFI
- fluorescence intensity [17, 27]: 45.5 MFI
- fluorescence intensity [17, 28]: 236 MFI
- fluorescence intensity [17, 29]: 1440 MFI
- fluorescence intensity [17, 30]: 6140 MFI
- fluorescence intensity [17, 31]: 10800 MFI
- fluorescence intensity [18, 24]: 26 MFI
- fluorescence intensity [18, 25]: 27 MFI
- fluorescence intensity [18, 26]: 32.8 MFI
- fluorescence intensity [18, 27]: 63.5 MFI
- fluorescence intensity [18, 28]: 234 MFI
- fluorescence intensity [18, 29]: 1000 MFI
- fluorescence intensity [18, 30]: 2670 MFI
- fluorescence intensity [18, 31]: 4040 MFI
- fluorescence intensity [19, 24]: 20 MFI
- fluorescence intensity [19, 25]: 20 MFI
- fluorescence intensity [19, 26]: 20.2 MFI
- fluorescence intensity [19, 27]: 27.5 MFI
- fluorescence intensity [19, 28]: 96.8 MFI
- fluorescence intensity [19, 29]: 382 MFI
- fluorescence intensity [19, 30]: 1310 MFI
- fluorescence intensity [19, 31]: 2240 MFI
- fluorescence intensity [20, 24]: 22 MFI
- fluorescence intensity [20, 25]: 23 MFI
- fluorescence intensity [20, 26]: 24 MFI
- fluorescence intensity [20, 27]: 33.5 MFI
- fluorescence intensity [20, 28]: 116 MFI
- fluorescence intensity [20, 29]: 612 MFI
- fluorescence intensity [20, 30]: 2340 MFI
- fluorescence intensity [20, 31]: 4410 MFI
- fluorescence intensity [21, 24]: 24.5 MFI
- fluorescence intensity [21, 25]: 23.5 MFI
- fluorescence intensity [21, 26]: 26.2 MFI
- fluorescence intensity [21, 27]: 34.8 MFI
- fluorescence intensity [21, 28]: 116 MFI
- fluorescence intensity [21, 29]: 659 MFI
- fluorescence intensity [21, 30]: 2630 MFI
- fluorescence intensity [21, 31]: 3860 MFI
- fluorescence intensity [22, 24]: 19 MFI
- fluorescence intensity [22, 25]: 19.2 MFI
- fluorescence intensity [22, 26]: 19 MFI
- fluorescence intensity [22, 27]: 22.8 MFI
- fluorescence intensity [22, 28]: 35.5 MFI
- fluorescence intensity [22, 29]: 142 MFI
- fluorescence intensity [22, 30]: 613 MFI
- fluorescence intensity [22, 31]: 1230 MFI
- fluorescence intensity [23, 24]: 20.8 MFI
- fluorescence intensity [23, 25]: 22 MFI
- fluorescence intensity [23, 26]: 24 MFI
- fluorescence intensity [23, 27]: 47 MFI
